The text below walks through data of publication PMC6803327.

Chains of the proteins cited; added tags and fusions are not shown.
UniProt B0B9M4: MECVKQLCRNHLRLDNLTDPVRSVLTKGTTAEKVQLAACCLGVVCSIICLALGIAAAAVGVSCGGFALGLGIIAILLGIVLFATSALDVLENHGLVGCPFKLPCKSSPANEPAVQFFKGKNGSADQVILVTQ
UniProt A0A0H3MD02: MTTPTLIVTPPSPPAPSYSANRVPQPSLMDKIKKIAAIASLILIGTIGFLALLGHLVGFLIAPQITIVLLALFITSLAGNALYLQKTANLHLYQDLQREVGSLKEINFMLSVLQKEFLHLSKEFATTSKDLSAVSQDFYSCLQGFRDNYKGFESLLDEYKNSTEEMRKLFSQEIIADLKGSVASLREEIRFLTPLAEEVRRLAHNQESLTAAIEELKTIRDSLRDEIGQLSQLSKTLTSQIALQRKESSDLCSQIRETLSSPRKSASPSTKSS

This assay concerns the target IncE (BACTH fusion) (C. trachomatis serovar L2) (UniProt B0B9M4). Nature of the assay: two-hybrid; bacterial adenylate cyclase two-hybrid (BACTH): pST25 and pUT18C fusions cotransformed into E. coli DHT1 (ΔcyaA), minimal medium with IPTG and X-Gal, 30°C 3 to 5 days; β-galactosidase assay in relative units; positive: more than five times the negative control.

These are yes or no findings as the source states them, for the method shown.

As to “IncA (BACTH fusion) (from UniProt A0A0H3MD02 1-273)”, the binding result is “no binding”.
